According to patent US11723897B2, “Fatty acids as anti-inflammatory agents” (University of Pittsburgh—Of the Commonwealth System of …, priority 2009, dated 2023):
For at least one compound, name, drawing or mass did not settle the structure.

Tested on: EFAD formation in RAW264.7 cells
Assay: Inhibitor study: EFAD formation in RAW264.7 cells activated with Kdo2 and IFNγ
Format: cell-based, murine
Settings: RAW264.7 + Kdo2 + IFNγ, 20 h; ↓ decrease, ↑ increase, NE (not defined in patent)

Row | SMILES | Effect of inhibitor on EFAD-4 formation | Effect of inhibitor on EFAD-1 formation | Effect of inhibitor on EFAD-2 formation | Effect of inhibitor on EFAD-3 formation | Effect of inhibitor on EFAD-5 formation | Effect of inhibitor on EFAD-6 formation
1 | CC(C)c1ccc2c(c1)c(SC(C)(C)C)c(CC(C)(C)C(=O)O)n2Cc1ccc(Cl)cc1 [MK886] | N | – | – | – | – | –
2 | Cc1ccc(-c2cc(C(F)(F)F)nn2-c2ccc(S(N)(=O)=O)cc2)cc1 [Celecoxib] | ↓ | ↓ | ↓ | ↓ | ↓ | ↓
